Results reported in patent US7611693B2, “Mechanism-based targeted pancreatic beta cell imaging and therapy” (Board of Regents, The Univerisity of Texas System, priority 2003, dated 2009).
Not every detail of the peptide structures is certain; ends, links or a residue may be inferred.

Tested on: pancreatic beta cells
Test: Animal studies: selective imaging of pancreatic beta cells
Type: in vivo
Description: The present disclosure addresses at least in part some deficiencies in the prior art by providing novel DTPA-antidiabetic conjugates useful for imaging beta-cell function. Through binding of radiolabeled conjugates, such as ^99mTc-DTPA-antidiabetic conjugates, for example, to pancreatic beta receptors, detectable by gamma scintigraphy, pancreatic function is monitored. Four DTPA-antidiabetic conjugates have been synthesized and evaluated. […] These agents are labeled with isotopes in order to assess beta cell function in diabetic or insulinoma patients both pre- and post-treatment. These compositions and methods are useful to provide early diagnosis as well as monitoring of response of pancreatic disease during treatment.

CC(C)[C@H]1CC[C@H](C(=O)N[C@H](Cc2ccccc2)C(=O)NCCNC(=O)CN(CCN(CCN(CC(=O)O)CC(=O)NCCNC(=O)[C@@H](Cc2ccccc2)NC(=O)[C@H]2CC[C@H](C(C)C)CC2)CC(=O)O)CC(=O)O)CC1 [DTPA-nateglinide, DTPA-Nateglinide] was tested, and the “selective imaging of pancreatic beta cells” value was “able to selectively image pancreatic beta cells”.
